According to patent publication US10624968B2, “Compounds for treating cancer” (Bicycle Therapeutics Limited, priority 2017, dated 2020):
Where “and” joins values, the source holds several entries; their conditions need not be identical. Equal entries are not always repeated. Not every detail of the peptide structures is certain; ends, links or a residue may be inferred. Starred links: 1 amine or outer side, 2 acyl side, 3 side chain; linkers in the order of their positions; H or OH if unused. Positions of bridges follow the written chain, without caps; N, C: chain ends. Non-standard residues stand in square brackets, D forms with d. Residues, ends and D or L forms follow the SMILES beside them. Chains are numbered I, II in the order given. ξ: configuration not given here. *: point of attachment. Dolaproine = CO[C@@H]([C@@H]1CCCN1)[C@@H](C)C(=O)O; Dil = CC[C@H](C)[C@H](NC)[C@@H](CC(=O)O)OC; TBMB = c1c(C[*:1])cc(C[*:3])cc1C[*:2]; X2 = O=C(CCCC(=O)[*:2])NCCC(=O)[*:1]; PABC = O=C(OCc1ccc(N[*:1])cc1)[*:2]; X1 = C[C@@H](N*)[C@@H](O)c1ccccc1; ξ1Nal = NC(Cc1cccc2ccccc12)C(=O)O; Cit = NC(=O)NCCC[C@H](N)C(=O)O; NMeV = CN[C@H](C(=O)O)C(C)C; ξY = NC(Cc1ccc(O)cc1)C(=O)O; ξTle = CC(C)(C)C(N)C(=O)O; ξF = NC(Cc1ccccc1)C(=O)O; ξE = NC(CCC(=O)O)C(=O)O; ξD = NC(CC(=O)O)C(=O)O; ξN = NC(=O)CC(N)C(=O)O; ξC = NC(CS)C(=O)O; ξA = CC(N)C(=O)O; Sar = CNCC(=O)O

Key:
LU-01-0046 PDX = experiment: Efficacy in MT1-MMP high expressing LU-01-0046 NSCLC PDX model; type: in vivo, mouse
HCC1806 = conditions: 72 hours
From the text: (§1) Details of the initial cell plating procedure are described in Table 3.
(§2) Data Details for Tables 5 and 6. Inhibition %=(Max−Sample value)/(Max−Min)*100.
(§3) The IC50 curves were generated by 4 Parameter Logistic Model—Sigmoidal Dose-Response Model as follows: Y=Bottom+(Top−Bottom)/(1+10^((log EC50-X)*HillSlope)).

EBC-1 = conditions: 72 hours
From the text: as §1, §2, §3

MDA-MB-231 = conditions: 72 hours
From the text: as §1, §2, §3

HT1080 = conditions: 72 hours
From the text: as §1, §2, §3

HCT15 = conditions: 72 hours
From the text: as §1, §2, §3

NCI-H292 = conditions: 72 hours
From the text: as §1, §2, §3

PC-3 = conditions: 72 hours
From the text: as §1, §2, §3

HT29 = conditions: 72 hours
From the text: as §1, §2, §3

SNU-16 = conditions: 72 hours
From the text: as §1, §2, §3

NCI-H1975 = conditions: 72 hours
From the text: as §1, §2, §3

MOLP-8 = conditions: 72 hours
From the text: as §1, §2, §3

HT1080 cells = experiment: HT1080 cytotoxicity (ATPLite) in presence or absence of excess binding or non-binding peptide; type: cell-based; conditions: for IC50: mean ± standard deviation
Description: The target dependence of cytotoxicity of I-1a in cell lines expressing or lacking MT1-MMP was assessed by measuring ATP levels in an endpoint assay after 24 hours exposure to toxin, in the presence or absence of an excess of binding peptide or non-binding control peptide.
HT1080 cells were seeded in 96 well plates (75 μL/well) and incubated overnight at 37° C.+5% CO2. The next day, peptides were prepared in buffer from a DMSO stock. 10 μL of buffer or peptide was added to the cells and incubated for 1 hour. Toxins were diluted in cell culture media and 15 μL/well was added to the cells (<0.5% final DMSO). Cells were approximately 30-50% confluent upon dosing. Plates were sealed with gas permeable seals and incubated for 24 hours at 37° C.+5% CO2. After 24 hours, media was removed, cells were washed with PBS and 100 μL fresh media was added per well. Cells were incubated for a further 48 hours at 37° C.+5% CO2.
ATPLite reagent (Perkin Elmer) was equilibrated to room temperate and reconstituted in buffer as per the manufacturer's instructions. 100 μL reagent was added per well. Plates were sealed and shaken gently for 20 minutes to ensure complete cell lysis before luminescence was read using a BMG Pherastar. […] Data was analyzed using GraphPad Prism. Non-linear regression fit was used to calculate an IC50 for each toxic agent: Y=Bottom+(Top−Bottom)/(1+10^((Log IC50-X)*HillSlope)).

EBC-1 xenograft = experiment: Anti-tumor efficacy in EBC-1 xenograft model; type: in vivo, mouse; conditions: for Tumor volume: Mean ± SEM; for effect on tumor growth (in words): 3× weekly schedule for two weeks
HT1080 xenograft = experiment: Efficacy in HT1080 xenograft model (Example 7); type: in vivo
LU-01-0486 PDX = experiment: Efficacy in MT1-MMP low-expressing LU-01-0486 NSCLC PDX model; type: in vivo, mouse
Description: The objective of this study was to evaluate the in vivo anti-tumor efficacy of I-1a in the treatment of MT1-MMP low-expressing LU-01-0486 PDX model in female Balb/C nude mice
Each mouse was inoculated subcutaneously at the right flank with LU-01-0486 of tumor fragment (30 mm^3) for tumor development. The treatments was started when the average tumor volume reaches 164 mm^3.
The major endpoint was to see if the tumor growth could be delayed or mice could be cured. Tumor size was measured two times weekly in two dimensions using a caliper, and the volume was expressed in mm^3 using the formula: V=0.5 a×b^2 where a and b are the long and short diameters of the tumor, respectively. […]
TGI was calculated for each group using the formula: TGI (%)=[1−(Ti−T0)/(Vi−V0)]×100; Ti is the average tumor volume of a treatment group on a given day, T0 is the average tumor volume of the treatment group on the day of treatment start, Vi is the average tumor volume of the vehicle control group on the same day with Ti, and V0 is the average tumor volume of the vehicle group on the day of treatment start.
A one-way ANOVA was performed to compare tumor volume among groups, and when a significant F-statistics (a ratio of treatment variance to the error variance) was obtained, comparisons between groups were carried out with Games-Howell test. All data were analyzed using Prism. […]

CC[C@H](C)[C@@H]([C@@H](CC(=O)N1CCC[C@H]1[C@H](OC)[C@@H](C)C(=O)N[C@H](C)[C@@H](O)c1ccccc1)OC)N(C)C(=O)[C@@H](NC(=O)[C@H](C(C)C)N(C)C(=O)OCc1ccc(NC(=O)[C@H](CCCNC(N)=O)NC(=O)[C@@H](NC(=O)CCCC(=O)NCCC(=O)N(C)CC(=O)N(C)CC(=O)N(C)CC(=O)N(C)CC(=O)N(C)CC(=O)N(C)CC(=O)N(C)CC(=O)N(C)CC(=O)N(C)CC(=O)N(C)CC(=O)NC(C)C(=O)NC2CSCc3cc4cc(c3)CSCC(NC(=O)C(C)NC(=O)C(Cc3cccc5ccccc35)NC(=O)C(CCC(=O)O)NC(=O)C(CC(N)=O)NC(=O)C(C)NC2=O)C(=O)NC(CCC(=O)O)C(=O)NC(CC(=O)O)C(=O)NC(Cc2ccccc2)C(=O)NC(Cc2ccc(O)cc2)C(=O)NC(CC(=O)O)C(=O)NC(C(C)(C)C)C(=O)NC(C(N)=O)CSC4)C(C)C)cc1)C(C)C (stereo partly drawn) [Compound I-1a] (I: [Sar][Sar][Sar][Sar][Sar][Sar][Sar][Sar][Sar][Sar][ξA][ξC][ξA][ξN][ξE][ξ1Nal][ξA][ξC][ξE][ξD][ξF][ξY][ξD][ξTle][ξC]-NH2 / II: V[Cit][PABC][NMeV]V[Dil][Dolaproine]-X1; linker I:12-I:18-I:25 via TBMB; linker I:N-II:N via X2)
tumor growth inhibition (in words) (LU-01-0046 PDX; 1 mg/kg): significant growth inhibition, comparable to that seen with the clinically used agent Docetaxel | tumor growth inhibition (in words) (LU-01-0046 PDX; 3 mg/kg): significant growth inhibition, greater than that seen with docetaxel | tumor growth inhibition (in words) (LU-01-0046 PDX; 10 mg/kg): significant growth inhibition, greater than that seen with docetaxel | Top inhibition% (HCC1806): 88% | Top inhibition% (EBC-1): 70% | Top inhibition% (MDA-MB-231): 71% | Top inhibition% (HT1080): 82% | Top inhibition% (HCT15): <50% | Top inhibition% (NCI-H292): 82% | Top inhibition% (PC-3): 59% | Top inhibition% (HT29): 81% | Top inhibition% (SNU-16): 96% | Top inhibition% (NCI-H1975): 60% | Top inhibition% (MOLP-8): 89% | IC50 (HT1080 cells; 24 hours exposure, No block, 3 repeats): 0.0137 µM | Maximum kill (HT1080 cells; +250 μM binding peptide): 95% | IC50 (HT1080 cells; +250 μM binding peptide): 0.161 µM | Maximum kill (HT1080 cells; +250 μM non-binding peptide): 95% | IC50 (HT1080 cells; +250 μM non-binding peptide): 0.0187 µM | Maximum kill (HT1080 cells; No block, compared to a lysis control): 95% | TGI (EBC-1 xenograft; 1 mg/kg TIW, day 14): 90% | TIC (EBC-1 xenograft; 1 mg/kg TIW, day 14): 23% | Tumor volume (EBC-1 xenograft; 1 mg/kg tiw, day 0): 162 mm^3 | Tumor volume (EBC-1 xenograft; 1 mg/kg tiw, day 2): 239 mm^3 | Tumor volume (EBC-1 xenograft; 1 mg/kg tiw, day 4): 308 mm^3 | Tumor volume (EBC-1 xenograft; 1 mg/kg tiw, day 7): 427 mm^3 | Tumor volume (EBC-1 xenograft; 1 mg/kg tiw, day 9): 395 mm^3 | Tumor volume (EBC-1 xenograft; 1 mg/kg tiw, day 11): 380 mm^3 | Tumor volume (EBC-1 xenograft; 1 mg/kg tiw, day 14): 271 mm^3 and 271 ± 99 mm^3 | effect on tumor growth (in words) (EBC-1 xenograft; 1 mg/kg): significant reduction in tumor growth | TGI (EBC-1 xenograft; 3 mg/kg TIW, day 14): 114% | TIC (EBC-1 xenograft; 3 mg/kg TIW, day 14): 0% | Tumor volume (EBC-1 xenograft; 3 mg/kg tiw, day 0): 144 mm^3 | Tumor volume (EBC-1 xenograft; 3 mg/kg tiw, day 2): 126 mm^3 | Tumor volume (EBC-1 xenograft; 3 mg/kg tiw, day 4): 105 mm^3 | Tumor volume (EBC-1 xenograft; 3 mg/kg tiw, day 7): 63 mm^3 | Tumor volume (EBC-1 xenograft; 3 mg/kg tiw, day 9): 22 mm^3 | Tumor volume (EBC-1 xenograft; 3 mg/kg tiw, day 11): 0 mm^3 | Tumor volume (EBC-1 xenograft; 3 mg/kg tiw, day 14): 0 mm^3 and 0 ± 0 mm^3 | effect on tumor growth (in words) (EBC-1 xenograft; 3 mg/kg): complete regressions | TGI (EBC-1 xenograft; 10 mg/kg TIW, day 14): 116% | TIC (EBC-1 xenograft; 10 mg/kg TIW, day 14): 0% | Tumor volume (EBC-1 xenograft; 10 mg/kg tiw, day 0): 165 mm^3 | Tumor volume (EBC-1 xenograft; 10 mg/kg tiw, day 2): 110 mm^3 | Tumor volume (EBC-1 xenograft; 10 mg/kg tiw, day 4): 74 mm^3 | Tumor volume (EBC-1 xenograft; 10 mg/kg tiw, day 7): 28 mm^3 | Tumor volume (EBC-1 xenograft; 10 mg/kg tiw, day 9): 5 mm^3 | Tumor volume (EBC-1 xenograft; 10 mg/kg tiw, day 11): 0 mm^3 | Tumor volume (EBC-1 xenograft; 10 mg/kg tiw, day 14): 0 mm^3 and 0 ± 0 mm^3 | effect on tumor growth (in words) (EBC-1 xenograft; 10 mg/kg): complete regressions | effect on tumor (in words) (HT1080 xenograft; 1 mg/kg): Complete clearance of tumor | efficacy when co-dosed with binding peptide (in words) (HT1080 xenograft; 1 mg/kg I-1a with 100-fold excess of the binding peptide): significant displacement of efficacy | inhibition of tumor growth (in words) (LU-01-0486 PDX; 1 mg/kg): limited inhibition of tumor growth | inhibition of tumor growth (in words) (LU-01-0486 PDX; 3 mg/kg): greater inhibition of tumor growth
